Results are given in words; binding and its absence hold for the method and conditions named. In cells and extracts the contact can be indirect. A yes stands for co-enrichment or nearness to the bait. Other partners may have been found. Where a sequence is shown, tags or fusion partners need not be part of it.
Molecular target: T1, 3XFLAG-OFD1 (human) (UniProt O75665)
T1 sequence: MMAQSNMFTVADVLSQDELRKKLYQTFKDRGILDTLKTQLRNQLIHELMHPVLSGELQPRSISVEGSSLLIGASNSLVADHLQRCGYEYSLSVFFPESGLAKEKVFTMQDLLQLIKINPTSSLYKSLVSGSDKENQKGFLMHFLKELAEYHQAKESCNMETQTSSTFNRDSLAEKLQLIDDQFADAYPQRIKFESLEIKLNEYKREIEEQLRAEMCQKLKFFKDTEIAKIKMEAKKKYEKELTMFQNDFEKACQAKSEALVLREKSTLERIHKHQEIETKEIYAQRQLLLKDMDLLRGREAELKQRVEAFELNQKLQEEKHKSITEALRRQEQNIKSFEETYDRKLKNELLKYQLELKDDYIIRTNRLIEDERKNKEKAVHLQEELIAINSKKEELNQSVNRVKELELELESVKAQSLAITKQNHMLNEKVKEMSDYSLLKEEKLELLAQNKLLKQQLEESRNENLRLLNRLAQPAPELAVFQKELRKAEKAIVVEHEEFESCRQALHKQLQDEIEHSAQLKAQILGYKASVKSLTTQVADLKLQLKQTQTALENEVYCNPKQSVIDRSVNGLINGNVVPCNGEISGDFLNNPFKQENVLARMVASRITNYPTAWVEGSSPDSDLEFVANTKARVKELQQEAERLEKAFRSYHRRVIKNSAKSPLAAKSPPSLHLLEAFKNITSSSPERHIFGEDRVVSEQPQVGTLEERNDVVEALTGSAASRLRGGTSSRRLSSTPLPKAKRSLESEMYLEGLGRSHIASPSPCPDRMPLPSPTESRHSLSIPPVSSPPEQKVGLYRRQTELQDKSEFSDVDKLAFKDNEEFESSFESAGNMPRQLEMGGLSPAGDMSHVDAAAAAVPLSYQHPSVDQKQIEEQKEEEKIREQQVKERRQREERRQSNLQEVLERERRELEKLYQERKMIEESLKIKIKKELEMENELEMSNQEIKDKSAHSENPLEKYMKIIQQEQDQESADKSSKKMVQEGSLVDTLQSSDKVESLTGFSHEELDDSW
Experiment: affinity purification with mass spectrometry; lysates of HEK293 cells expressing 3XFLAG-OFD1 (empty vector as control), M2 anti-FLAG agarose beads overnight at 4 °C, washing buffer with 300 mM NaCl, elution with 3XFLAG peptide, SDS-PAGE, nanoLC-MS/MS

Protein sequences, listed by entry. Tags and fused reporters are not part of them.
UniProt O75821: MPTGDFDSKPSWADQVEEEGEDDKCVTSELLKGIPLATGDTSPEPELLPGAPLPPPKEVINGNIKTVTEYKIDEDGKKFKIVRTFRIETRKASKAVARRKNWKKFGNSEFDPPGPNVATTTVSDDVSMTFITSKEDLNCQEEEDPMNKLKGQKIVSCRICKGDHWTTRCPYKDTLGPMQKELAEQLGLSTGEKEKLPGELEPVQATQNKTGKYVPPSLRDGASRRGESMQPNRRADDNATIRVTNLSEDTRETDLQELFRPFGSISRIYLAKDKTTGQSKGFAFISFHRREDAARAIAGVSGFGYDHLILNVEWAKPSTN

- binding: binds
Substance: eIF3G (from UniProt O75821 1-320)

Source: article PMC5430665
